# PubChem BioAssay AID504764 – Drosophila RNAi Screening Center | 2011
# Purpose: 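Knock-downs that raise or lower a Notch target reporter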 (primary screen)
# Cells: Drosophila Kc167 cells
# Reagents: long dsRNA against Drosophila genes
# Timing: about 5 days (4 days dsRNA, then 24 h after transfection)
# Challenge: transfection of constitutively active membrane-tethered Notch lacking the extracellular domain, read 24 h later
# Measured: 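Firefly luciferase from an E(spl)m3 reporter with active Notch, plus control-promoter and uninduced reporter wells for normalisation; unnormalised counts, duplicate wells a and b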
# Direction: induced reporter light, run 1, well a and induced reporter light, run 1, well b: higher = more light from the Notch target reporter with active Notch; control promoter light, run 1, well a and control promoter light, run 1, well b: higher = more light from the viral control promoter (cell number, transfection, viability); uninduced reporter light, run 1, well a: higher = more light from the Notch target reporter without active Notch
# Call rule: 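Hit if the duplicate-averaged log2 ratio of induced to control-promoter light gives a plate-wise z beyond ±2, or induced to uninduced beyond ±1.8; weak-control or discordant-duplicate wells dropped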
# Meaning of the calls: active = modifier hit (raised or lowered Notch signal); inactive = not a hit
# The screen tested about 22,000 reagents; shown is an unselected part of those that have a named target and a result. Of all reagents, 403 (1.9%) were called active. 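Unnormalised raw counts per well; ratio z-scores behind the hit calls and whether each hit raises or lowers signal are not deposited.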 Reagents against one gene are numbered here. Not given: the amount of reagent.
The first 3 entries, to show the layout:
gene,reagent,"induced reporter light, run 1, well a","induced reporter light, run 1, well b","control promoter light, run 1, well a","control promoter light, run 1, well b","uninduced reporter light, run 1, well a",call
Cbp53E (Calbindin 53E),1,78700,80240,1.19e5,1.44e5,6735,inactive
orion,1,2.02e5,2.01e5,3.88e5,3.14e5,15230,inactive
orion,2,1.82e5,1.92e5,2.71e5,2.89e5,11635,inactive

Results, from the start:
gene,reagent,"induced reporter light, run 1, well a","induced reporter light, run 1, well b","control promoter light, run 1, well a","control promoter light, run 1, well b","uninduced reporter light, run 1, well a",call
Cbp53E (Calbindin 53E),1,78700,80240,1.19e5,1.44e5,6735,inactive
orion,1,2.02e5,2.01e5,3.88e5,3.14e5,15230,inactive
orion,2,1.82e5,1.92e5,2.71e5,2.89e5,11635,inactive
CG17562,1,3.53e5,3.33e5,2.58e5,2.61e5,22742,active
synr (sayonara),1,2.12e5,1.55e5,2.50e5,2.45e5,10015,inactive
CG9304,1,34625,32905,44120,52105,1925,inactive
rngo (rings lost),1,1.95e5,1.97e5,3.19e5,3.10e5,15440,inactive
Cpr76Bc (Cuticular protein 76Bc),1,1.23e5,1.04e5,91165,91545,6610,inactive
CG1344,1,1.13e5,1.49e5,91365,1.02e5,7670,inactive
Srrm234 (Serine-arginine repetitive matrix 2/3/4),1,1.09e5,1.07e5,97730,95605,10085,inactive
Srrm234 (Serine-arginine repetitive matrix 2/3/4),2,66035,74670,1.54e5,1.33e5,6340,inactive
nrv1 (nervana 1),1,1.38e5,1.61e5,1.54e5,1.49e5,13242,inactive
RpL13 (Ribosomal protein L13),1,14540,13940,17532,19610,1065,inactive
CG42445,1,1.25e5,1.27e5,71180,41035,9305,inactive
DIP-theta (Dpr-interacting protein theta),1,1.08e5,1.06e5,1.66e5,1.25e5,8470,inactive
DIP-theta (Dpr-interacting protein theta),2,1.48e5,1.26e5,2.18e5,2.09e5,10070,inactive
DIP-theta (Dpr-interacting protein theta),3,1.34e5,1.11e5,1.34e5,1.17e5,9610,inactive
CG6415,1,2.38e5,2.43e5,2.18e5,2.16e5,16280,inactive
CG11581,1,1.30e5,89960,1.21e5,96615,15662,inactive
CG7168,1,1.69e5,2.23e5,2.58e5,2.73e5,17250,inactive
CG42680,1,99160,1.09e5,95210,88680,9965,inactive
CG4743,1,1.49e5,1.47e5,2.06e5,1.76e5,11800,inactive
corn (cornetto),1,92745,1.03e5,85090,34280,10920,inactive
corn (cornetto),2,,,,,,inactive
BckdhB (Branched chain keto acid dehydrogenase E1 subunit beta),1,86445,74200,1.08e5,1.31e5,9345,inactive
PNUTS (Phosphatase 1 nuclear targeting subunit),1,1.52e5,1.88e5,1.45e5,1.71e5,12130,inactive
PNUTS (Phosphatase 1 nuclear targeting subunit),2,,,,,,inactive
COX1 (retired record),1,82530,1.16e5,1.03e5,1.10e5,9980,inactive
Cpr47Ea (Cuticular protein 47Ea),1,1.32e5,1.26e5,1.32e5,1.35e5,11845,inactive
obst-B (obstructor-B),1,2.25e5,1.92e5,1.93e5,1.95e5,17320,inactive
hwt (heavyweight),1,1.58e5,1.57e5,2.27e5,2.40e5,13465,inactive
CG8908,1,38390,34445,31070,42755,4178,inactive
Klp98A (Kinesin-like protein at 98A),1,1.68e5,1.68e5,2.69e5,2.17e5,14595,inactive
Klp98A (Kinesin-like protein at 98A),2,,,,,,inactive
CHES-1-like (Checkpoint suppressor 1-like),1,1.25e5,1.20e5,2.00e5,1.99e5,10140,inactive
Vps51 (Vacuolar protein sorting 51),1,1.03e5,1.16e5,1.81e5,1.96e5,9205,inactive
CG31219,1,1.87e5,1.77e5,2.29e5,2.12e5,14805,inactive
CG3635,1,52760,54820,46400,68195,3655,inactive
na (narrow abdomen),1,97625,1.07e5,1.42e5,1.27e5,13690,inactive
CG31955,1,1.77e5,1.75e5,2.05e5,1.99e5,10635,inactive
CG9701,1,1.11e5,1.27e5,93010,89310,10940,inactive
Cap-G (Chromosome associated protein G),1,83395,1.05e5,1.19e5,1.07e5,10045,inactive
Cap-G (Chromosome associated protein G),2,1.15e5,1.33e5,1.49e5,1.33e5,10770,inactive
CG34001,1,2.86e5,2.12e5,2.83e5,2.70e5,16545,inactive
CG13992,1,1.54e5,1.63e5,1.59e5,1.87e5,8925,inactive
Or10a (Odorant receptor 10a),1,1.12e5,1.16e5,1.58e5,2.15e5,8815,inactive
RhoGEF4 (Rho guanine nucleotide exchange factor 4),1,74815,85205,78180,22920,9245,inactive
Fim (Fimbrin),1,95045,1.16e5,87630,52230,9328,inactive
CG5191,1,98730,1.12e5,89775,1.12e5,8600,inactive
CG5191,2,1.47e5,1.42e5,2.02e5,2.00e5,12100,inactive
